The supplement of paper PMC4604168 (melanoma cell lines)
Some of the results follow. Single values are uncertain, as repeats are few or missing.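 The apoptosis fraction was the count of cleaved-PARP antibody-stained nuclei relative to all DNA-stained nuclei, imaged in 1,536-well plates. Screening doses were set so most cells survived, and baseline and induced cleaved-PARP levels vary greatly across cell lines.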

How the values were obtained:
Test in all cases: cleaved PARP positive nuclei fraction relative to DMSO control; melanoma cells; higher = more apoptosis
Settings in all cases: library dose: low library concentration; 72 h
MZ2-MEL = tested on: MZ2-MEL
MeWo = tested on: MeWo
RPMI7951 = tested on: RPMI7951
RVH-421 = tested on: RVH-421
SkMel28 = tested on: SkMel28
SkMel2 = tested on: SkMel2
SkMel30 = tested on: SkMel30
UACC62 = tested on: UACC62
WM115 = tested on: WM115
WM1716 = tested on: WM1716
WM1745 = tested on: WM1745
WM3526 = tested on: WM3526
WM3619 = tested on: WM3619
WM451Lu = tested on: WM451Lu

| Structure (SMILES) | cleaved PARP positive nuclei fraction (MZ2-MEL) [%] | cleaved PARP positive nuclei fraction (MeWo) [%] | cleaved PARP positive nuclei fraction (RPMI7951) [%] | cleaved PARP positive nuclei fraction (RVH-421) [%] | cleaved PARP positive nuclei fraction (SkMel28) [%] | cleaved PARP positive nuclei fraction (SkMel2) [%] | cleaved PARP positive nuclei fraction (SkMel30) [%] | cleaved PARP positive nuclei fraction (UACC62) [%] | cleaved PARP positive nuclei fraction (WM115) [%] | cleaved PARP positive nuclei fraction (WM1716) [%] | cleaved PARP positive nuclei fraction (WM1745) [%] | cleaved PARP positive nuclei fraction (WM3526) [%] | cleaved PARP positive nuclei fraction (WM3619) [%] | cleaved PARP positive nuclei fraction (WM451Lu) [%] |
| --- | --- | --- | --- | --- | --- | --- | --- | --- | --- | --- | --- | --- | --- | --- |
| C[C@@H](N)c1ccc(C(=O)Nc2ccnc3[nH]ccc23)cc1 + CN1CCN(c2ccc3nc(-c4c(N)c5c(F)cccc5[nH]c4=O)[nH]c3c2)CC1 [Dovitinib] (first compound 0.4 µM, partner dose 0.1 µM) | 271 | 108 | 146 | 59.3 | 98.1 | 159 | 112 | 60.1 | 41.5 | 127 | 145 | 80.4 | 109 | 56.2 |
| NC(=O)c1ccc(N(C(N)=O)c2c(F)cccc2F)nc1-c1ccc(F)cc1F + CS(=O)(=O)CCNCc1ccc(-c2ccc3ncnc(Nc4ccc(OCc5cccc(F)c5)c(Cl)c4)c3c2)o1 [lapatinib] (first compound 0.4 µM, partner dose 0.8 µM) | 170 | 195 | 67 | 304 | 92.6 | 94.4 | 185 | 209 | 56.9 | 91.1 | 99.7 | 81 | 74.9 | 98.6 |
| CCN(CC)CCNC(=O)c1c(C)[nH]c(/C=C2\C(=O)Nc3ccc(F)cc32)c1C [sunitinib] + Cn1nnc2c(C(N)=O)ncn2c1=O [temozolomide] (first compound 0.4 µM, partner dose 2 µM) | 104 | 139 | 318 | 110 | 75.4 | 80.2 | 102 | 305 | 72.2 | 36 | 116 | 94.2 | 81.7 | 94.3 |
| NC1(c2ccc(-c3nc4ccn5c(=O)[nH]nc5c4cc3-c3ccccc3)cc2)CCC1 + C=CCNC1=C2C[C@@H](C)C[C@H](OC)[C@H](O)[C@@H](C)/C=C(\C)[C@H](OC(N)=O)[C@@H](OC)/C=C\C=C(/C)C(=O)NC(=CC1=O)C2=O [Tanespimycin] (first compound 0.4 µM, partner dose 0.002 µM) | 73.4 | 59.1 | 106 | 241 | 100 | 96.4 | 81.3 | 369 | 148 | 142 | 101 | 308 | 96.9 | 183 |
| CCN(CC)CCNC(=O)c1c(C)[nH]c(/C=C2\C(=O)Nc3ccc(F)cc32)c1C [sunitinib] + Cc1cc(Nc2cc(N3CCN(C)CC3)nc(/C=C/c3ccccc3)n2)n[nH]1 [ENMD2076] (first compound 0.4 µM, partner dose 0.04 µM) | 142 | 33.7 | 141 | 120 | 69.5 | 24.3 | 73.6 | 121 | 197 | 147 | 192 | 32.3 | 77.9 | 245 |
| C[C@]1(O)C[C@@H](c2nc(-c3ccc4ccc(-c5ccccc5)nc4c3)c3c(N)nccn32)C1 + CN(c1ncccc1CNc1nc(Nc2ccc3c(c2)CC(=O)N3)ncc1C(F)(F)F)S(C)(=O)=O [PF562271] (first compound 0.4 µM, partner dose 0.08 µM) | 201 | 47.2 | 222 | 207 | 97.5 | 156 | 106 | 14.8 | 14.3 | 25.7 | 159 | 33.2 | 94 | 138 |
| C[C@@H](N)c1ccc(C(=O)Nc2ccnc3[nH]ccc23)cc1 + CO[C@H]1C[C@@H]2CC[C@@H](C)[C@@](O)(O2)C(=O)C(=O)N2CCCC[C@H]2C(=O)O[C@H]([C@H](C)C[C@@H]2CC[C@@H](OCCO)[C@H](OC)C2)CC(=O)[C@H](C)/C=C(\C)[C@@H](O)[C@@H](OC)C(=O)[C@H](C)C[C@H](C)/C=C/C=C/C=C/1C [everolimus] (first compound 0.4 µM, partner dose 0.02 µM) | 132 | 155 | 95.7 | 208 | 1090 |  | 51.5 | 648 | 195 | 345 | 103 | 34.7 | 153 | 46.5 |
| CN(c1ncccc1CNc1nc(Nc2ccc3c(c2)CC(=O)N3)ncc1C(F)(F)F)S(C)(=O)=O + Nc1nc(F)nc2c1ncn2[C@@H]1O[C@H](CO)[C@@H](O)[C@@H]1O [fludarabine] (first compound 0.08 µM, partner dose 0.2 µM) | 108 | 2020 | 136 | 89.8 | 235 | 1070 | 525 | 372 | 265 | 2010 | 112 | 1470 | 91.7 | 98.2 |
